No constants are given. Whether binding was seen depends on the method and setting.
Molecular target: HERV-K ENV (HERV-K113 clone) expressed in HEK293T cells (pCMV-HERV-K ENV) (human) (UniProt Q902F9)
Experiment: automated capillary Western blot (Simple Western, WES); lysates of transfected HEK293T cells in RIPA with 1% fos-cholin 16, soluble and insoluble fractions, denatured at 95 °C; 12-230 kDa and 66-440 kDa matrices; detection with GN_mAb_Env01, GN_mAb_Env04, GN_mAb_Env-K01 or anti-FLAG

Protein sequences, listed by entry. Tags and fused reporters are not part of them. Residues count along the entry.
UniProt Q902F9, residues 90-699: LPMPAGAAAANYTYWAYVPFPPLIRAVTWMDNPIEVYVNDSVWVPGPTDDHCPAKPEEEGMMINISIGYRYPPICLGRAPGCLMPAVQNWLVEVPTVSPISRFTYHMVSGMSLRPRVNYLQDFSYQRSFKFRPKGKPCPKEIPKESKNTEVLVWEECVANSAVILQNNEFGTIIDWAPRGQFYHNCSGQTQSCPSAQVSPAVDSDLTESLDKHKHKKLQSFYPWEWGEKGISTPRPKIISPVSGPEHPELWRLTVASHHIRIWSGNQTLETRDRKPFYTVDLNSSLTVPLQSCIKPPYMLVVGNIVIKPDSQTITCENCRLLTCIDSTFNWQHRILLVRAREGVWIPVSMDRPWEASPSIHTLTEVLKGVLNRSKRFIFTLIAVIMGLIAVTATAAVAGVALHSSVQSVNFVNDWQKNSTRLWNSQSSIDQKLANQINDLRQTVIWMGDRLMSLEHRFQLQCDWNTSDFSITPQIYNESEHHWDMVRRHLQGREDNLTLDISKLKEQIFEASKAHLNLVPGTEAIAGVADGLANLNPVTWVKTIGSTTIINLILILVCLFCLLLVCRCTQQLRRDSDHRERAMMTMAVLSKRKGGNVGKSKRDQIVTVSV

With “HERV-K ENV (HERV-K113 clone) expressed in HEK293T cells (pCMV-HERV-K ENV) (from UniProt Q902F9 90-699)” the binding was “no binding”.
